Tested on: HCT116
Experiment: RNA-seq assay, gene set enrichment, pathway enrichment and DEG analysis
Assay type: cell-based, human
Protocol: For the final detection of significant gene-sets, gene annotation databases (KEGG pathway, Gene Ontology, etc.) with various biological information about genes were used to discover various gene-sets by grouping genes with specific functions among all the genes used in the RNA-seq experiment. Significant genes were determined with reference to a difference in expression values between the two classes within each gene-set, and statistically significant gene-set was finally detected based on the significant genes. […] In DEG analysis, expression values of genes are measured and statistically processed to select a significant gene candidate group (differentially expression genes) with a difference in expression between a control and a comparison group.

Structure (SMILES): O=C(NC1CCN(CCCCC2(C(=O)NCC(F)(F)F)c3ccccc3-c3ccccc32)CC1)c1ccccc1-c1ccc(C(F)(F)F)cc1 [lomitapide, N-(2,2,2-trifluoroethyl)-9-[4-[4-[[[4′-(trifluoromethyl)[1,1′-biphenyl]2-yl]carbonyl]amino]-1-piperidinyl]butyl]-9H-fluoren-9-carboxamide]
- Gene Ratio (AGE-RAGE signaling pathway in diabetic complications): 0.53
- Gene Ratio (Adrenergic signaling in cardiomyocytes): 0.62
- Gene Ratio (Apoptosis): 0.35
- Gene Ratio (Autophagy - animal): 0.6
- Gene Ratio (Breast cancer): 0.37
- Gene Ratio (C-type lectin receptor signaling pathway): 0.16
- Gene Ratio (Colorectal cancer): 0.58
- Gene Ratio (Cytokine-cytokine receptor interaction): 0.37
- Gene Ratio (Endocrine resistance): 0.41
- Gene Ratio (Epithelial cell signaling in Helicobacter pylori infection): 0.38
- Gene Ratio (ErbB signaling pathway): 0.69
- Gene Ratio (Fluid shear stress and atherosclerosis): 0.31
- Gene Ratio (FoxO signaling pathway): 0.52
- Gene Ratio (Hepatitis B): 0.33
- Gene Ratio (Human T-cell leukemia virus 1 infection): 0.35
- Gene Ratio (IL-17 signaling pathway): 0.45
- Gene Ratio (Kaposi sarcoma-associated herpesvirus infection): 0.4
- Gene Ratio (MAPK signaling pathway): 0.31
- Gene Ratio (NF-kappa B signaling pathway): 0.46
- Gene Ratio (Neuroactive ligand-receptor interaction): 0.52
- Gene Ratio (Non-alcoholic fatty liver disease (NAFLD)): 0.33
- Gene Ratio (Osteoclast differentiation): 0.81
- Gene Ratio (PI3K-Akt signaling pathway): 0.24
- Gene Ratio (Parathyroid hormone synthesis, secretion and action): 0.53
- Gene Ratio (Pathways in cancer): 0.3
- Gene Ratio (Peroxisome): 0.83
- Gene Ratio (Pertussis): 0.33
- Gene Ratio (Protein processing in endoplasmic reticulum): 0.26
- Gene Ratio (Relaxin signaling pathway): 0.6
- Gene Ratio (Shigellosis): 0.38
- Gene Ratio (Signaling pathways regulating pluripotency of stem cells): 0.39
- Gene Ratio (Spliceosome): 0.88
- Gene Ratio (TNF signaling pathway): 0.62
- Gene Ratio (Transcriptional misregulation in cancer): 0.4
- Gene Ratio (Viral carcinogenesis): 0.42
